Data published in article doi:10.1101/2021.04.11.438637.

By UniProt entry, the sequences of proteins in these tests, tags left out. Where a name states a change or a piece, a line headed by the entry shows the natural chain unless it says otherwise.
UniProt O04567: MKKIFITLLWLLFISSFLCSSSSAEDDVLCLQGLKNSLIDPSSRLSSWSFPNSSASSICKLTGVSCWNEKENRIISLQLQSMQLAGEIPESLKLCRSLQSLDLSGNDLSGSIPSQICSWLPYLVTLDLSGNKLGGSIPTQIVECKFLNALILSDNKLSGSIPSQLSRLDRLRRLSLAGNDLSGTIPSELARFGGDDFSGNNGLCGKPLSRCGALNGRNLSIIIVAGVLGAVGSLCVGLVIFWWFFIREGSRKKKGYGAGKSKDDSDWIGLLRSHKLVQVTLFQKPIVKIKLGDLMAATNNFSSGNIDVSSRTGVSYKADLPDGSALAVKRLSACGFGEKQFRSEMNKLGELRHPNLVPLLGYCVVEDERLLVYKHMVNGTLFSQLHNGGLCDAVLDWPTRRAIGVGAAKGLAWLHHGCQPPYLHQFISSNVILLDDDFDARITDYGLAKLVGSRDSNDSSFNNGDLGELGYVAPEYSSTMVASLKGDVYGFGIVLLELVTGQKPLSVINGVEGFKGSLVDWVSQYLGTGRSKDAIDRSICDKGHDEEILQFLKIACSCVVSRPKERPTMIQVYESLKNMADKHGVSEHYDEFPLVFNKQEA

Target: BIR3-YFP (Arabidopsis thaliana) (UniProt O04567)
Assay: affinity purification with mass spectrometry

B1: CONSTITUTIVE SHADE AVOIDANCE 1 (CSA1), endogenous (protein, UniProt F4KIF3 1-1197)
chain: MTSSSSWVKTDGETPQDQVFINFRGVELRKNFVSHLEKGLKRKGINAFIDTDEEMGQELSVLLERIEGSRIALAIFSPRYTESKWCLKELAKMKERTEQKELVVIPIFYKVQPVTVKELKGDFGDKFRELVKSTDKKTKKEWKEALQYVPFLTGIVLDEKSDEDEVINIIIRKVKEILNRRSEGPPSKCSALPPQRHQKRHETFWGIELRIKQLEEKLRFGSDETTRTIGVVGMPGIGKTTLATMLYEKWNDRFLRHVLIRDIHEASEEDGLNYLATKFLQGLLKVENANIESVQAAHEAYKDQLLETKVLVILDNVSNKDQVDALLGERNWIKKGSKILITTSDKSLMIQSLVNDTYEVPPLSDKDAIKHFIRYAFDGNEGAAPGPGQGNFPKLSKDFVHYTKGNPLALQMLGKELLGKDESHWGLKLNALDQHHNSPPGQSICKMLQRVWEGSYKALSQKEKDALLDIACFRSQDENYVASLLDSDGPSNILEDLVNKFMINIYAGKVDMHDTLYMLSKELGREATATDRKGRHRLWHHHTIIAVLDKNKGGSNIRSIFLDLSDITRKWCFYRHAFAMMRDLRYLKIYSTHCPQECESDIKLNFPEGLLLPLNEVRYLHWLKFPLKEVPQDFNPGNLVDLKLPYSEIERVWEDNKDAPKLKWVNLNHSKKLNTLAGLGKAQNLQELNLEGCTALKEMHVDMENMKFLVFLNLRGCTSLKSLPEIQLISLKTLILSGCSKFKTFQVISDKLEALYLDGTAIKELPCDIGRLQRLVMLNMKGCKKLKRLPDSLGQLKALEELILSGCSKLNEFPETWGNMSRLEILLLDETAIKDMPKILSVRRLCLNKNEKISRLPDLLNKFSQLQWLHLKYCKNLTHVPQLPPNLQYLNVHGCSSLKTVAKPLVCSIPMKHVNSSFIFTNCNELEQAAKEEIVVYAERKCHLLASALKRCDESCVPEILFCTSFPGCEMPSWFSHDAIGSMVEFELPPHWNHNRLSGIALCVVVSFKNCKSHANLIVKFSCEQNNGEGSSSSITWKVGSLIEQDNQEETVESDHVFIGYTNCLDFIKLVKGQGGPKCAPTKASLEFSVRTGTGGEATLEVLKSGFSFVFEPEENRVPSPRNDDVKGKVKINKTPSANGCFKDQAKGNESPKGQWQTYIENSSTNIPSEAHSSQKTGFNGFNGMYSVCVLYEMYSH
binding: binds

No constants are given. Whether binding was seen depends on the method and setting. In cells and extracts the contact can be indirect. Here binding means that the protein was enriched with, or labelled near, the bait; the list need not be complete.
